Experimental data: the supplement of paper PMC12067093, “Discovery and optimisation of a covalent ligand for TRIM25 and its application to targeted protein ubiquitination” (Chemical Science, 2025)
The other results are listed elsewhere or left out.

Protein sequences, listed by entry. Tags and fused reporters are not part of them. Lines headed by an entry give the natural chain unless they say otherwise; changes in a name come on top.
UniProt Q9P2J5: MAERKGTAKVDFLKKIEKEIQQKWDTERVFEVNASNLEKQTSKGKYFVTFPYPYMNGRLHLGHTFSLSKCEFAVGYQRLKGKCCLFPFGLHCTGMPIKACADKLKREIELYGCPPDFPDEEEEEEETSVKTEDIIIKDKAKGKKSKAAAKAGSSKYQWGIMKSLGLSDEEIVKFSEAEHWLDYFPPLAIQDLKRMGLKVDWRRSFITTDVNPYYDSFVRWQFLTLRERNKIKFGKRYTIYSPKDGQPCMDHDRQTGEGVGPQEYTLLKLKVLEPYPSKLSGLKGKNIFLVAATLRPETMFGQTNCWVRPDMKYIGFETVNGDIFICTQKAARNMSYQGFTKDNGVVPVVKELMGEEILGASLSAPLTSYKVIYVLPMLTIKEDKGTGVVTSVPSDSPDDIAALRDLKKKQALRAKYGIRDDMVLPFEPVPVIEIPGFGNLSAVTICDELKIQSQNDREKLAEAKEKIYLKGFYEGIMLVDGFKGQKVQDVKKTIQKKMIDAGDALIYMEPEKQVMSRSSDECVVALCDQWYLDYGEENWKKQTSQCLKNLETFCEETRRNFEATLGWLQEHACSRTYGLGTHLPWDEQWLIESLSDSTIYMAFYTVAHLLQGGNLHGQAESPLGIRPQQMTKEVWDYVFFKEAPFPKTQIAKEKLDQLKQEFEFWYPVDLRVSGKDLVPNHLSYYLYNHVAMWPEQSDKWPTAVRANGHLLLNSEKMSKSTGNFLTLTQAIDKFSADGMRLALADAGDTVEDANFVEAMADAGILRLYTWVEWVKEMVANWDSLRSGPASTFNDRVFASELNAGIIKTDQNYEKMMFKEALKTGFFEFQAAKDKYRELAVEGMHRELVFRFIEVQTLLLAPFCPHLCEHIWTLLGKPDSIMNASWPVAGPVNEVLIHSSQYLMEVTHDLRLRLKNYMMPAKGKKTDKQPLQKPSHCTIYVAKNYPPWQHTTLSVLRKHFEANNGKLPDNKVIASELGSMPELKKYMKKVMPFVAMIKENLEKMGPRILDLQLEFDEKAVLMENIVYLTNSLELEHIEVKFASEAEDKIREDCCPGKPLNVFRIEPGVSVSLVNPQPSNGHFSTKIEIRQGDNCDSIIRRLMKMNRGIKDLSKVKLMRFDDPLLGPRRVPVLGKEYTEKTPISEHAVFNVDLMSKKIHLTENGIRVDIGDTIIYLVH
UniProt P13796: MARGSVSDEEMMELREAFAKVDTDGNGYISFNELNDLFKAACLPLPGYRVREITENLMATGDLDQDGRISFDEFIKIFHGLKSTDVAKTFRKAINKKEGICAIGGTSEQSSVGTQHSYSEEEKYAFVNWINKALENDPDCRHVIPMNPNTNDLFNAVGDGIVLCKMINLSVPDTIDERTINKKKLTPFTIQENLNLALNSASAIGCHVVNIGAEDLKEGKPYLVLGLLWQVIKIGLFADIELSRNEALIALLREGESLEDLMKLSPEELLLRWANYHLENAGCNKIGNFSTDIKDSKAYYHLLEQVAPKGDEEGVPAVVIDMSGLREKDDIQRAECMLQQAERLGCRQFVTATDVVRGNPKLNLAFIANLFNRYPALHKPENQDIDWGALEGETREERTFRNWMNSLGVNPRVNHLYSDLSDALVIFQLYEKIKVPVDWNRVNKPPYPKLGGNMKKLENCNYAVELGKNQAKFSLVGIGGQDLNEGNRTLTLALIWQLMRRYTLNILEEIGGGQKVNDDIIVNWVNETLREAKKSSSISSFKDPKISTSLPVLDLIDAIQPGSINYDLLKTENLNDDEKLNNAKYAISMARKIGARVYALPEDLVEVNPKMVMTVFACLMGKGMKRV
UniProt Q14974, whole entry, looked up: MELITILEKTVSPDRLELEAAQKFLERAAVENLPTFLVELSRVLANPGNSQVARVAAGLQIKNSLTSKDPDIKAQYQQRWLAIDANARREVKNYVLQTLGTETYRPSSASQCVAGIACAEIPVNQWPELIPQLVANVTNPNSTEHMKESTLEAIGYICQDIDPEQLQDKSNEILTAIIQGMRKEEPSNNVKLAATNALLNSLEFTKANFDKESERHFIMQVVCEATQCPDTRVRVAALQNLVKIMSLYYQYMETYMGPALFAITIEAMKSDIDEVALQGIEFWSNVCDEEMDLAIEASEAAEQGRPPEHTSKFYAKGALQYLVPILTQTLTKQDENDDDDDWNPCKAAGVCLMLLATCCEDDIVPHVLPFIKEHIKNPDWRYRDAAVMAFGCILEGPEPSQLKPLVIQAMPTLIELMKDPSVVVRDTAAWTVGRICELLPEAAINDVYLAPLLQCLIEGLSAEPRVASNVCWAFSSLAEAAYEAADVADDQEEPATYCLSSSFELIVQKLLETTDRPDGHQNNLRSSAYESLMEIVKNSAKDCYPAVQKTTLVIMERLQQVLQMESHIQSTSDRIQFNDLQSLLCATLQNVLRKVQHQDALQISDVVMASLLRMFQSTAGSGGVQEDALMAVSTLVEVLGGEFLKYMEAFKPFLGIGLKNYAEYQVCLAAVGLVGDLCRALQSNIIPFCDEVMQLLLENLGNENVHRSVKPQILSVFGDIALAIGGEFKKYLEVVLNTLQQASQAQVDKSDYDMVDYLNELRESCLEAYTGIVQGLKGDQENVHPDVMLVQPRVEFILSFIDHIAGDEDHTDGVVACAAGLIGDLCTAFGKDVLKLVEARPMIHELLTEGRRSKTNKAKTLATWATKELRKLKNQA
UniProt Q2M2Z5: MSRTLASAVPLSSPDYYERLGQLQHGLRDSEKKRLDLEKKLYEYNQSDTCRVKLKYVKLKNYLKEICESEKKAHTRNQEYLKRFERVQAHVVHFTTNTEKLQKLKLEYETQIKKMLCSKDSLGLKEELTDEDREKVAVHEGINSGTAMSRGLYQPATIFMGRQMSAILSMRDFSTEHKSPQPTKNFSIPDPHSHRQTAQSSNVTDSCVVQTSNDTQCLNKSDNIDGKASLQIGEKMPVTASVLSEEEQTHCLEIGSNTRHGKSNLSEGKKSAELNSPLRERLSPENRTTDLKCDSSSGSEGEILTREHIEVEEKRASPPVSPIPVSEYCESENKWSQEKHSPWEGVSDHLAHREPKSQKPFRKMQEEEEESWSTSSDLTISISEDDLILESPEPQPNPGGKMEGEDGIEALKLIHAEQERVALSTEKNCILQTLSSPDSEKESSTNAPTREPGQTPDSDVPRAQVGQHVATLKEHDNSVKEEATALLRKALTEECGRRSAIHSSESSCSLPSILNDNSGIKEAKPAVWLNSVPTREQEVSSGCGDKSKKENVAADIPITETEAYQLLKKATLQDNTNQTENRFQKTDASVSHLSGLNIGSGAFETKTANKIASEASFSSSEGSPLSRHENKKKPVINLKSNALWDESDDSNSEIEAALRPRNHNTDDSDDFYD
UniProt Q96JM7: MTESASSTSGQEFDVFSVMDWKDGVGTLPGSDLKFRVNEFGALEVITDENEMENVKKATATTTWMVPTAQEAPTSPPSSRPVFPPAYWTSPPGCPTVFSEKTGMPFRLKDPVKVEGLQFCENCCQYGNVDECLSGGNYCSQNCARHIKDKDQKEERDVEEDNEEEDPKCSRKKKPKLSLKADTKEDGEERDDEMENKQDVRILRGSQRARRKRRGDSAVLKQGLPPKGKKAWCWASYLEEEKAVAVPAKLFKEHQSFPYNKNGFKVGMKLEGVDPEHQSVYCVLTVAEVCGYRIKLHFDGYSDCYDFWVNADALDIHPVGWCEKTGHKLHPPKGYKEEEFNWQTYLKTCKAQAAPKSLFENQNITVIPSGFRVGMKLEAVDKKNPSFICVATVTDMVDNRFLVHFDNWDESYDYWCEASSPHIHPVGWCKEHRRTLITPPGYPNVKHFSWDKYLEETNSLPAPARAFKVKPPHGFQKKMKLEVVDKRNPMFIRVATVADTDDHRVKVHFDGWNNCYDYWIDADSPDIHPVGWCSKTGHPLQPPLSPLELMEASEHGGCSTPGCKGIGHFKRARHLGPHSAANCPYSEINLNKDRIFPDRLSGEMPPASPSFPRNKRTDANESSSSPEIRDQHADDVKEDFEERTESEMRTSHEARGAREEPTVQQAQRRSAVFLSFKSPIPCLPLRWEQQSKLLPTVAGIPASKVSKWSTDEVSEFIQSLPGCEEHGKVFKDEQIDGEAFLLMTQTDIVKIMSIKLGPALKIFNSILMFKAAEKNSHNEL
UniProt O95239: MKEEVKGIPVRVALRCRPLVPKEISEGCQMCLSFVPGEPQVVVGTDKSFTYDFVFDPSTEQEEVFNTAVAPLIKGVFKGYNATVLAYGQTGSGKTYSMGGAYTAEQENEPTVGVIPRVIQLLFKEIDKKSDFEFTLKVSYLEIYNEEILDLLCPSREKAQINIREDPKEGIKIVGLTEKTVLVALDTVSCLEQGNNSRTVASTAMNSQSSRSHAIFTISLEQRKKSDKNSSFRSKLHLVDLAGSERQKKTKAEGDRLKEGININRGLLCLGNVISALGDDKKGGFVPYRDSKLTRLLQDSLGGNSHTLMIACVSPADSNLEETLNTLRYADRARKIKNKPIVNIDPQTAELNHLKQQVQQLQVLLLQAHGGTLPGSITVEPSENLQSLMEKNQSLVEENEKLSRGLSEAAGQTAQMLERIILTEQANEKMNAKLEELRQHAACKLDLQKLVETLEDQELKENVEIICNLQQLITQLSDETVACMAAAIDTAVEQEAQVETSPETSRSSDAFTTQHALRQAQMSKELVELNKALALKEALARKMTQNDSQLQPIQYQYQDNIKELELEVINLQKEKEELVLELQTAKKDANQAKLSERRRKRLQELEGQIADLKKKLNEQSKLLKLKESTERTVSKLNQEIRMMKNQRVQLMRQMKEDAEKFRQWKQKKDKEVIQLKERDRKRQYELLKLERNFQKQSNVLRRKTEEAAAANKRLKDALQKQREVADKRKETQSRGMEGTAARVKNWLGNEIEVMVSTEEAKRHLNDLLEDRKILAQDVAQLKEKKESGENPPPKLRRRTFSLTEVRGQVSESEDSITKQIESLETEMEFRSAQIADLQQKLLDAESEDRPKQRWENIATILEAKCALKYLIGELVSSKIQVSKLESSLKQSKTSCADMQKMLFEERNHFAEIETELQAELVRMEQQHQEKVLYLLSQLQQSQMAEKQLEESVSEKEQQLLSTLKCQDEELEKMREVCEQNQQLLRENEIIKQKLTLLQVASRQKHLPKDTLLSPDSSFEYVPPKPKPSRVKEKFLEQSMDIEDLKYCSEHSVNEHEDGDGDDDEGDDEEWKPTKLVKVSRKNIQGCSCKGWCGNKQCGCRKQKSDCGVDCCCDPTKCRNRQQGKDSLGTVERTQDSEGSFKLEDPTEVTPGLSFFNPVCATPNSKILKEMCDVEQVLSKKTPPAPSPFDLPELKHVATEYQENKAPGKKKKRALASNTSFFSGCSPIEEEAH
UniProt Q07866: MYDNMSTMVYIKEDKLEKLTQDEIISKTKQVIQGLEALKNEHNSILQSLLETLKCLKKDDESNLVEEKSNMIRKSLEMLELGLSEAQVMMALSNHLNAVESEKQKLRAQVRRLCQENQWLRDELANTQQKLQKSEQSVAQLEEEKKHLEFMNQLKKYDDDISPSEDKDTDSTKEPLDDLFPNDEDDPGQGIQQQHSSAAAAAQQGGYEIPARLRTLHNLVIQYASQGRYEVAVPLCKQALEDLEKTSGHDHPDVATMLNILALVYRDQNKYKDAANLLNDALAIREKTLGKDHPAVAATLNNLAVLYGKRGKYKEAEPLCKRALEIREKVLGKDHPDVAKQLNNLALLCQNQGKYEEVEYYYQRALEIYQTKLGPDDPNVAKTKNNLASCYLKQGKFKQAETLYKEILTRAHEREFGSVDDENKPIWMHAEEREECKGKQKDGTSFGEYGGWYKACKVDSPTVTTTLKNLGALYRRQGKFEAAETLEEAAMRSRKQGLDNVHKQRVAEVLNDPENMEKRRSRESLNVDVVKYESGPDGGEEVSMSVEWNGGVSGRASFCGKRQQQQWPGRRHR
UniProt Q14657: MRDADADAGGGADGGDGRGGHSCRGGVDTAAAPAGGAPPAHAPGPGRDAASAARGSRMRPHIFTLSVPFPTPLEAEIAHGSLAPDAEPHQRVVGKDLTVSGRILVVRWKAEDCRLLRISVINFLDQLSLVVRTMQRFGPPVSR
UniProt Q9H9P8: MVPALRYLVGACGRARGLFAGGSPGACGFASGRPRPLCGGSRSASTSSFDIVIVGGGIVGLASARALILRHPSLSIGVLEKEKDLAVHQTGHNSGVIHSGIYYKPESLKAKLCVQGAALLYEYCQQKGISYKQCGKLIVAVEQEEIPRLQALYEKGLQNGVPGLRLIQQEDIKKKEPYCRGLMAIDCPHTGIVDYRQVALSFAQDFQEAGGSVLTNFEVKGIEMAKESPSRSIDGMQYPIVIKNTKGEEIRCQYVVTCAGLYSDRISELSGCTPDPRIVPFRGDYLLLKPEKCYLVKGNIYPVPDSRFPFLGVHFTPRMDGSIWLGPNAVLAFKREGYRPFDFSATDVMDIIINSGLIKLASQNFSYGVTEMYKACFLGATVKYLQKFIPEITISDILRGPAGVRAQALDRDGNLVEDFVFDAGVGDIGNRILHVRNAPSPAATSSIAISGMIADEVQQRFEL

Compound: Cc1cc(ccc1-c1ccccc1)C(=O)N1CCCN(CC1)C(=O)CCl [compound 10]
Experiment: probe-labelled cysteine peptide fold change vs DMSO (competition) (log2 fold change); higher = less target engagement (more negative = stronger competition)
Conditions: THP-1, incubation time: 4 h
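Also: competitive profiling in live THP-1 cells: cysteine peptides tagged with an iodoacetamide desthiobiotin (IA-DTB) probe, intensity after compound treatment relative to DMSO-treated cells.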

Target | probe-labelled cysteine peptide fold change (10 µM) | probe-labelled cysteine peptide fold change (50 µM)
LDHA_P00338_35_ITVVGVGAVGMACAISILMK (UniProt P00338) | -0.106 | 0.321
L3MBTL2_Q969R5_446_LEAIDPLNLGNICVATVCK (UniProt Q969R5) | 0.385 | 0.547
KPNA1_P52294_424_YLVELGCIK (UniProt P52294) | 0.248 | 0.177
LARS_Q9P2J5_936_PSHCTIYVAK (UniProt Q9P2J5) | 0.0982 | 0.0707
LCP1_P13796_336_AECMLQQAER (UniProt P13796) | -0.0514 | -0.006
LCP1_P13796_164_HVIPMNPNTNDLFNAVGDGIVLCK (UniProt P13796) | 0.209 | 0.0458
LAMP5_Q9UJQ1_182_SYECQAQQTISLASSDPQK (UniProt Q9UJQ1) | -0.186 | -0.0471
L3HYPDH_Q96EM0_139_VNIHCPCGLVTAFVACEDGR (UniProt Q96EM0) | -0.189 | -0.312
KPNB1_Q14974_223_HFIMQVVCEATQCPDTR (UniProt Q14974) | -0.0415 | 0.0124
LARS_Q9P2J5_554_NLETFCEETR (UniProt Q9P2J5) | -0.124 | -0.054
KLC4_Q9NSK0_53_SEHQAVLQSLSQTIECLQQGGHEEGLVHEK (UniProt Q9NSK0) | 0.00259 | -0.22
KPNA6_O60684_467_SGSGVNPYCGLIEEAYGLDK (UniProt O60684) | -0.141 | 0.0964
KIZ_Q2M2Z5_50_LYEYNQSDTCR (UniProt Q2M2Z5) | -0.183 | 0.0156
LAMP2_P13473_153_CNSLSTLEK (UniProt P13473) | -0.124 | -0.0914
KLHL15_Q96M94_588_LDGLQVCNLHFPDYVLDEVR (UniProt Q96M94) | -0.0242 | -0.276
LCP1_P13796_618_MVMTVFACLMGK (UniProt P13796) | -0.0499 | 0.0355
LARS_Q9P2J5_546_QTSQCLK (UniProt Q9P2J5) | -0.0553 | -0.0485
LEMD2_Q8NC56_355_VVCLESAHPR (UniProt Q8NC56) | -0.216 | 0.089
L3MBTL3_Q96JM7_583_HLGPHSAANCPYSEINLNK (UniProt Q96JM7) | 0.168 | 0.0108
KIF4A_O95239_269_GLLCLGNVISALGDDK (UniProt O95239) | 0.287 | 0.214

Target | probe-labelled cysteine peptide fold change (10 µM) | probe-labelled cysteine peptide fold change (50 µM)
LARS_Q9P2J5_84_CCLFPFGLHCTGMPIK (UniProt Q9P2J5) | -0.0226 | -0.198
KLC1_Q07866_390_NNLASCYLK (UniProt Q07866) | 0.196 | -0.135
KITLG_P21583_114_LVNIVDDLVECVK (UniProt P21583) | 0.152 | -0.209
LAGE3_Q14657_23_GGHSCR (UniProt Q14657) | -0.138 | -0.286
KLHL6_Q8WZ60_539_ALYAYSPLEDSWCLVTQLSHER (UniProt Q8WZ60) | 0.201 | 0.388
KPNB1_Q14974_392_DAAVMAFGCILEGPEPSQLK (UniProt Q14974) | 0.132 | 0.441
KNTC1_P50748_1892_ALQCLFYLADK (UniProt P50748) | 0.24 | 0.196
LAT2_Q9GZY6_160_TTETGAQQEGIGGLCR (UniProt Q9GZY6) | -0.0497 | -0.326
KNL1_Q8NG31_1407_GQLDCVITLHK (UniProt Q8NG31) | 0.135 | -0.0533
LDHD_Q86WU2_310_IEFLDEVMMDACNR (UniProt Q86WU2) | 0.198 | 0.345
LENG8_Q96PV6_600_EKQDYAFACEQMK (UniProt Q96PV6) | 0.0437 | -0.171
LASP1_Q14847_35_ACFHCETCK (UniProt Q14847) | 0.0524 | -0.129
KIF2C_Q99661_560+572_TCMIATISPGISSCEYTLNTLR (UniProt Q99661) | 0.173 | -0.0157
LAIR1_Q6GTX8_101_CIYYKPPK (UniProt Q6GTX8) | -0.066 | -0.0579
L3MBTL3_Q96JM7_389_KNPSFICVATVTDMVDNR (UniProt Q96JM7) | -0.0217 | -0.0604
KRI1_Q8N9T8_667_LLGPTVMLGGCEFSR (UniProt Q8N9T8) | 0.253 | -0.845
KLC1_Q07866-4_621_NNCLADSR (UniProt Q07866) | -0.212 | -0.654
LARP7_Q4G0J3_438_TANREECR (UniProt Q4G0J3) | 0.0898 | -0.0816
L2HGDH_Q9H9P8_272_ISELSGCTPDPR (UniProt Q9H9P8) | -0.165 | -0.0744

As entered above:
probe-labelled cysteine peptide fold change (10 µM) with KIF4A_O95239_269_GLLCLGNVISALGDDK (UniProt O95239) reads 0.287
probe-labelled cysteine peptide fold change (50 µM) with L2HGDH_Q9H9P8_272_ISELSGCTPDPR (UniProt Q9H9P8) reads -0.0744
